Laboratory results reported in paper PMC2671147.
These are yes or no findings as the source states them, for the method shown. Binding seen in cells or lysates may run through a third protein. Some binding calls cover weakened binding; strength is not graded here.

Protein sequences, listed by entry. Tags and fused reporters are not part of them.
UniProt P29338: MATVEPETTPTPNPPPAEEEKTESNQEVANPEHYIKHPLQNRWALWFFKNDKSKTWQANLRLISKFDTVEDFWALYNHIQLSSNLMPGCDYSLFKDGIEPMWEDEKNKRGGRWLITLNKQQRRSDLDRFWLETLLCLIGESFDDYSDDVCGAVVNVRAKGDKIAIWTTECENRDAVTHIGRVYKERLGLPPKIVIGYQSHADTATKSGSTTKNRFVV
UniProt P29562: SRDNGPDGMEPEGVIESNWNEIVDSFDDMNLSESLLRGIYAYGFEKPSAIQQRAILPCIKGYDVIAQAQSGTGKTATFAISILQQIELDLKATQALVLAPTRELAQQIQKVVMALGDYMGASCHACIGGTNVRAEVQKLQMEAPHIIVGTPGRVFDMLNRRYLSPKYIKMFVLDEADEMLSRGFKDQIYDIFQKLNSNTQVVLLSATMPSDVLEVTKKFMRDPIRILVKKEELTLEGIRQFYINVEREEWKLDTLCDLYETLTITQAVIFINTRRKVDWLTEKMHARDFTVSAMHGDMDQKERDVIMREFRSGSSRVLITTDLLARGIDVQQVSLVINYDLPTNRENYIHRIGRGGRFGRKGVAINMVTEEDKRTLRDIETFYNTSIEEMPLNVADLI

Target: eukaryotic initiation factor (eIF) 4E, from ribosomal salt wash (UniProt P29338)
Assay: pull-down; m7GTP-Sepharose affinity purification of eIF4E from RSW incubated with 0.5% DMSO or 50 uM silvestrol for 1 h at 30°C; beads 2 h at 4°C, washed with LCB (20 mM HEPES 7.5, 100 mM KCl, 0.2 mM EDTA) and LCB + 200 uM GDP, eluted with 200 uM m7GTP; Western blot

Substance: eukaryotic initiation factor (eIF) 4A, from ribosomal salt wash (from UniProt P29562 1-398)
- binding: binds
